Patent US12655099B2, “Substituted phenyl sulfide compound and application thereof” (SHENYANG SINOCHEM AGROCHEMICALS R&D CO., LTD., priority 2020, dated 2026)
Some of these results come from one statement about several compounds together.

Tests used:
[1] = test system: Adult Spider Mite (Tetranychus cinnabarinus); test: Activity against adult spider mite, spray on bean leaves, mortality after 72 h; type: in vivo; details: adult spider mites
Method: According to the solubility of test compounds, the compounds were dissolved with acetone or dimethyl sulfoxide, and then diluted with 0.1% aqueous solution of Tween 80 to form 50 ml test liquid and the content of the acetone or the dimethyl sulfoxide in the total solution was not more than 10% for later use. The adult spider mites were put into two true leaves of bean plants. After the number of mites were investigated, the solution of certain concentrations of test compounds was sprayed by using a handheld Airbrush. Three replicates were set for each treatment. Then the leaves were maintained in standard observation room. After 72 h, the number of surviving mites were observed, and the mortality rate was calculated.

[2] = test system: Egg of Spider Mite (Tetranychus Cinnabarinus); test: Activity against egg of spider mite, POTTER spray tower, incubation inhibition; type: in vivo; details: spider mite eggs
Method: According to the solubility of test compounds, the compounds were dissolved with acetone or dimethyl sulfoxide, and then diluted with 0.1% aqueous solution of Tween 80 to form 50 ml test liquid and the content of the acetone or the dimethyl sulfoxide in the total solution was not more than 10% for later use. The leaves of bean were chopped into leaf discs and put into a petri dish. Female adult mites were inoculated. After laying eggs, the female adult mites were removed. After the number of eggs were investigated, the solution of certain concentrations of test compounds were sprayed with a POTTER spray tower, for 2 mL per treatment, and blank control was set. When all eggs in the blank control were incubated, the number of eggs which were incubated and unincubated was recorded, and incubation inhibition rate of the eggs was calculated.

SMILES	mortality ([1]; 5 mg/L)	mortality ([1]; 10 mg/L)	mortality ([2]; 10 mg/L)	mortality ([2]; 5 mg/L)
Cc1cc(F)c(-c2cccc(C#N)c2)cc1SCC(F)(F)F [Compound 1]	greater than 90%	greater than 90%	greater than 90%	
Cc1cc(F)c(-c2cccc(C#N)c2)cc1[S+]([O-])CC(F)(F)F (centres unmarked) [Compound 2]		greater than 90%		
N#Cc1cccc(-c2cc(SCC(F)(F)F)c(Cl)cc2F)c1 [Compound 3]		greater than 90%		
Cc1cc(F)c(-c2cccc([N+](=O)[O-])c2)cc1SCC(F)(F)F [Compound 5]	greater than 90%	greater than 90%	greater than 90%	greater than 90%
Cc1cc(F)c(-c2cccc([N+](=O)[O-])c2)cc1[S+]([O-])CC(F)(F)F (centres unmarked) [Compound 6]	greater than 90%	greater than 90%	greater than 90%	greater than 90%
O=[N+]([O-])c1cccc(-c2cc(SCC(F)(F)F)c(Cl)cc2F)c1 [Compound 8]		greater than 90%		
O=[N+]([O-])c1cccc(-c2cc([S+]([O-])CC(F)(F)F)c(Cl)cc2F)c1 (centres unmarked) [Compound 9]		greater than 90%		
Cc1cc(F)c(-c2cccc(S(=O)(=O)C(F)(F)F)c2)cc1SCC(F)(F)F [Compound 11]		greater than 90%	greater than 90%	
CSc1cccc(-c2cc(SCC(F)(F)F)c(C)cc2F)c1 [Compound 14]	greater than 90%	greater than 90%	greater than 90%	greater than 90%
CCSc1cccc(-c2cc(SCC(F)(F)F)c(C)cc2F)c1 [Compound 17]		greater than 90%	greater than 90%	
Cc1cc(F)c(-c2cccc(SCC(F)(F)F)c2)cc1SCC(F)(F)F [Compound 19]		greater than 90%	greater than 90%	greater than 90%
